Reference: PubChem BioAssay AID1224826 (NIAID, 2016)
Screen: 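Regulators of Tlr4 signalling leading to Tnf-alpha expression in macrophages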 (primary screen). Cell system: RAW264.7 G9 macrophages from mouse bearing reporters for p65 (GFP) and the Tnf promoter (mCherry). Reagents: siRNA pool against mouse genes, 100 nM. Time to read-out: 16 h of LPS stimulation, after 2 days of siRNA transfection. Treatment: bacterial lipopolysaccharide (Salmonella minnesota R595), 10 ng/ml. Measured: 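Nuclear mCherry signal of the Tnf promoter reporter measured by imaging after background removal, scaled to each plate median and turned into robust z-scores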. Direction: Tnf reporter robust z-score: higher = stronger Tnf promoter reporter signal after LPS; Tnf reporter intensity: higher = stronger Tnf promoter reporter signal. Active means: 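Called active when robust z-score is at most -1.3, matching the median of the Tlr4 knock-down control, or over 3; control wells and wells with under 50 cells never active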. Meaning of the calls: active = Tnf reporter clearly lowered or raised; inactive = no clear change in Tnf reporter.
In all, the deposit lists about 17,000 reagents; shown is a random part of them. About 1,110 of all reagents (6.6%) count as active. 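Active means lowered or raised reporter signal; replicate intensities are raw and not normalised per plate.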 Unmarked entries are inactive. Reagents against one gene are numbered here.

| gene | reagent | Tnf reporter robust z-score | fewer than 50 cells in well | Tnf reporter intensity, replicate 1 | Tnf reporter intensity, replicate 2 |
| --- | --- | --- | --- | --- | --- |
| Cabyr (calcium binding tyrosine phosphorylation regulated) | 1 | 0.39 | enough cells in well | 164 | 183 |
| Pole3 (polymerase (DNA directed), epsilon 3 (p17 subunit)) | 1 | -1.58 (active) | enough cells in well | 66.5 | 54.3 |
| Cpsf2 (cleavage and polyadenylation specific factor 2) | 1 | – | fewer than 50 cells per well; well left out of calls | 174 | 206 |
| Ccdc92 (coiled-coil domain containing 92) | 1 | 0.17 | enough cells in well | 206 | 165 |
| Rbm25 (RNA binding motif protein 25) | 1 | 0.28 | enough cells in well | 310 | 65.5 |
| Rbm25 (RNA binding motif protein 25) | 2 | 0.38 | enough cells in well | 279 | 75.4 |
| Gm38404 (predicted gene, 38404) | 1 | -0.29 | enough cells in well | 180 | 145 |
| Dcbld2 (discoidin, CUB and LCCL domain containing 2) | 1 | 1.91 | enough cells in well | 319 | 258 |
| Or14a259 (olfactory receptor family 14 subfamily A member 259) | 1 | -0.73 | enough cells in well | 141 | 97.6 |
| Epcam (epithelial cell adhesion molecule) | 1 | -0.11 | enough cells in well | 200 | 144 |
| Trappc3 (trafficking protein particle complex 3) | 1 | 0.92 | enough cells in well | 120 | 123 |
| Map7 (microtubule-associated protein 7) | 1 | 0.33 | enough cells in well | 366 | 168 |
| A930104D05Rik (RIKEN cDNA A930104D05 gene) | 1 | -0.77 | enough cells in well | 115 | 126 |
| Cldn4 (claudin 4) | 1 | -0.43 | enough cells in well | 211 | 177 |
| Ulk1 (unc-51 like kinase 1) | 1 | -0.3 | enough cells in well | 159 | 111 |
| Myl6b (myosin, light polypeptide 6B) | 1 | -0.16 | enough cells in well | 203 | 187 |
| Wiz (widely-interspaced zinc finger motifs) | 1 | -0.9 | enough cells in well | 67.5 | 87.3 |
| Tcf21 (transcription factor 21) | 1 | -0.79 | enough cells in well | 180 | 92.3 |
| Nphp4 (nephronophthisis 4 (juvenile) homolog (human)) | 1 | 0.27 | enough cells in well | 301 | 169 |
| Cops5 (COP9 signalosome subunit 5) | 1 | -0.81 | enough cells in well | 146 | 172 |
| Fmn1 (formin 1) | 1 | 0.55 | enough cells in well | 288 | 166 |
| Plcl2 (phospholipase C-like 2) | 1 | -0.15 | enough cells in well | 128 | 64.4 |
| Cacng2 (calcium channel, voltage-dependent, gamma subunit 2) | 1 | -0.38 | enough cells in well | 145 | 151 |
| Etv6 (ets variant 6) | 1 | 0.66 | enough cells in well | 263 | 300 |
| Fyttd1 (forty-two-three domain containing 1) | 1 | – | fewer than 50 cells per well; well left out of calls | 392 | 173 |
| Gsta3 (glutathione S-transferase, alpha 3) | 1 | -0.95 | enough cells in well | 207 | 84.3 |
| Snx12 (sorting nexin 12) | 1 | – | fewer than 50 cells per well; well left out of calls | 87 | 101 |
| Col4a2 (collagen, type IV, alpha 2) | 1 | 2.27 | enough cells in well | 440 | 361 |
| Rnf11 (ring finger protein 11) | 1 | – | fewer than 50 cells per well; well left out of calls | 78.2 | 43.4 |
| Ly6g5b (lymphocyte antigen 6 family member G5B) | 1 | -0.88 | enough cells in well | 138 | 99.4 |
| Col7a1 (collagen, type VII, alpha 1) | 1 | 0.34 | enough cells in well | 284 | 222 |
| Rab1a (RAB1A, member RAS oncogene family) | 1 | -0.35 | enough cells in well | 273 | 180 |
| Cspg5 (chondroitin sulfate proteoglycan 5) | 1 | 0.57 | enough cells in well | 230 | 200 |
| Otog (otogelin) | 1 | 0.38 | enough cells in well | 130 | 184 |
| Sec14l1 (SEC14-like lipid binding 1) | 1 | 0.32 | enough cells in well | 285 | 259 |
| Ndufb3 (NADH:ubiquinone oxidoreductase subunit B3) | 1 | -0.04 | enough cells in well | 214 | 110 |
| Nox3 (NADPH oxidase 3) | 1 | -1.36 (active) | enough cells in well | 134 | 55.1 |
| Taf1c | 1 | 0.77 | enough cells in well | 284 | 175 |
| Ttbk1 (tau tubulin kinase 1) | 1 | -0.03 | enough cells in well | 111 | 120 |
| Gria3 (glutamate receptor, ionotropic, AMPA3 (alpha 3)) | 1 | 0.27 | enough cells in well | 264 | 271 |
| Scp2 | 1 | 0.84 | enough cells in well | 392 | 247 |
| Defb13 (defensin beta 13) | 1 | -1.45 (active) | enough cells in well | 124 | 59.8 |
| Cyria (CYFIP related Rac1 interactor A) | 1 | -0.95 | enough cells in well | 110 | 136 |
| Unc119 (unc-119 lipid binding chaperone) | 1 | -0.78 | enough cells in well | 165 | 175 |
| Fshr (follicle stimulating hormone receptor) | 1 | 0.38 | enough cells in well | 206 | 398 |
| Rab26 (RAB26, member RAS oncogene family) | 1 | -0.55 | enough cells in well | 230 | 181 |
| Cryz (crystallin, zeta) | 1 | -1.12 | enough cells in well | 143 | 130 |
| Myo3b (myosin IIIB) | 1 | -1.31 (active) | enough cells in well | 94.5 | 87 |
| Eps8l1 (EPS8 signaling adaptor L1) | 1 | -0.45 | enough cells in well | 196 | 125 |
| Lbx2 (ladybird homeobox 2) | 1 | -0.01 | enough cells in well | 206 | 121 |
| Or5b98 (olfactory receptor family 5 subfamily B member 98) | 1 | 1.68 | enough cells in well | 247 | 214 |
| Dync2li1 (dynein cytoplasmic 2 light intermediate chain 1) | 1 | – | fewer than 50 cells per well; well left out of calls | 185 | 44.3 |
| Chd9 (chromodomain helicase DNA binding protein 9) | 1 | -0.46 | enough cells in well | 134 | 134 |
| Ranbp3 (RAN binding protein 3) | 1 | 2.67 | enough cells in well | 323 | 275 |
| Kank1 (KN motif and ankyrin repeat domains 1) | 1 | -1.87 (active) | enough cells in well | 157 | 51.2 |
| Ecm1 (extracellular matrix protein 1) | 1 | 1.07 | enough cells in well | 305 | 320 |
| Tnfrsf11a | 1 | 0.51 | enough cells in well | 264 | 162 |
| Or5h18 (olfactory receptor family 5 subfamily H member 18) | 1 | -0.24 | enough cells in well | 159 | 116 |
| Itpkb (inositol 1,4,5-trisphosphate 3-kinase B) | 1 | -1.42 (active) | enough cells in well | 95.5 | 89.8 |
| Prl8a2 (prolactin family 8, subfamily a, member 2) | 1 | 0.89 | enough cells in well | 258 | 139 |
| Plxdc2 (plexin domain containing 2) | 1 | -0.44 | enough cells in well | 111 | 109 |
| Scoc (short coiled-coil protein) | 1 | -1.19 | enough cells in well | 72.3 | 80.7 |
| Cyp2ab1 (cytochrome P450, family 2, subfamily ab, polypeptide 1) | 1 | -0.71 | enough cells in well | 149 | 130 |
| Pam (peptidylglycine alpha-amidating monooxygenase) | 1 | 0.02 | enough cells in well | 79.4 | 132 |
| Afp (alpha fetoprotein) | 1 | -1.24 | enough cells in well | 76.9 | 123 |
| Vars1 (valyl-tRNA synthetase 1) | 1 | 2.25 | enough cells in well | 198 | 165 |
| Ehbp1l1 (EH domain binding protein 1-like 1) | 1 | 2.19 | enough cells in well | 337 | 249 |
| Ppp3cc (protein phosphatase 3, catalytic subunit, gamma isoform) | 1 | 0.2 | enough cells in well | 249 | 218 |
| Or6c3 (olfactory receptor family 6 subfamily C member 3) | 1 | – | fewer than 50 cells per well; well left out of calls | 39.5 | 243 |
| Acot9 (acyl-CoA thioesterase 9) | 1 | 2.52 | enough cells in well | 384 | 344 |
| Rnf4 (ring finger protein 4) | 1 | -0.41 | enough cells in well | 268 | 175 |
| Gm5134 (predicted gene 5134) | 1 | 3.68 (active) | enough cells in well | 452 | 305 |
| Hsdl1 (hydroxysteroid dehydrogenase like 1) | 1 | – | fewer than 50 cells per well; well left out of calls | 128 | 33.9 |
| Nid1 (nidogen 1) | 1 | 0.15 | enough cells in well | 269 | 179 |
| Zfp954 (zinc finger protein 954) | 1 | 1.13 | enough cells in well | 263 | 185 |

Part of the list above, reformatted.
gene	reagent	Tnf reporter robust z-score	fewer than 50 cells in well	Tnf reporter intensity, replicate 1	Tnf reporter intensity, replicate 2
Rbm25 (RNA binding motif protein 25)	1	0.28	enough cells in well	310	65.5
Rbm25 (RNA binding motif protein 25)	2	0.38	enough cells in well	279	75.4
Gm38404 (predicted gene, 38404)	1	-0.29	enough cells in well	180	145
Dcbld2 (discoidin, CUB and LCCL domain containing 2)	1	1.91	enough cells in well	319	258
Or14a259 (olfactory receptor family 14 subfamily A member 259)	1	-0.73	enough cells in well	141	97.6
Epcam (epithelial cell adhesion molecule)	1	-0.11	enough cells in well	200	144
Trappc3 (trafficking protein particle complex 3)	1	0.92	enough cells in well	120	123
